Measured values taken from patent publication US20040180342A1, “Multimers of S. solfataricus single-stranded DNA-binding protein and methods of use thereof” (REGENTS OF THE UNIVERSITY OF CALIFORNIA, published 2004).
Results are given in words; binding and its absence hold for the method and conditions named. Some entries that bind do so weakly or less than the wild type.

Key:
Conditions in all cases: remark: other sources report otherwise
[1] = biological target: T1, S. solfataricus ssDNA binding protein (SsoSSB protein) (Sulfolobus solfataricus), Q97W73; experiment: gel filtration, self-association
T1 chain: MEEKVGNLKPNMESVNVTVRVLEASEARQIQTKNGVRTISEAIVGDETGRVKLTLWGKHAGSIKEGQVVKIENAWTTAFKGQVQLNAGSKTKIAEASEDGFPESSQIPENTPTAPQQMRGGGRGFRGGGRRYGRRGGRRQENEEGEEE

[2] = biological target: T1, S. solfataricus ssDNA binding protein …; experiment: analytical gel filtration (Superose 12 FPLC), self-association of the purified protein
[3] = biological target: T1, S. solfataricus ssDNA binding protein …; experiment: gel filtration, self-association (discussion of the results)

Measured: binding

B1: S. solfataricus ssDNA binding protein (SsoSSB protein), Q97W73 1-148 (protein)
chain: MEEKVGNLKPNMESVNVTVRVLEASEARQIQTKNGVRTISEAIVGDETGRVKLTLWGKHAGSIKEGQVVKIENAWTTAFKGQVQLNAGSKTKIAEASEDGFPESSQIPENTPTAPQQMRGGGRGFRGGGRRYGRRGGRRQENEEGEEE
binds: all assays above
